Results published in PubChem BioAssay (EPA / NIEHS).
Where “and” joins values, the source holds several entries; their conditions need not be identical. Equal values may be shown once. Inconclusive results, whose numbers are uncertain, are shown with a selection of clear calls. Where the call is inconclusive, the potency comes from a doubtful curve fit. Calls of active or inactive are those of the source. The calls were made as follows: active = hit-call score of the fitted dose curve at least 0.9, where 1 is the maximum; inconclusive = response in the unintended direction; inactive = score below 0.9.

assay: TOX21_p53_BLA_p5_viability: Viability Assessment in the Tox21 HCT-116 p53 Agonism Beta-lactamase Assay, Phase 5 (AID 2283600)
In short: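 Decreased CellTiter-Glo luminescence denotes lost viability. Exposure: 16 h at 37C, 5% CO2, with compounds from DMSO stocks diluted 217-fold in wells of 4000 cells.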

Compound | AC50 | outcome
CON(C)C(=O)Nc1ccc(Cl)c(Cl)c1 | inconclusive: 46.1 µM | –
CC(C)(c1ccccc1)c1ccc(O)cc1 | inconclusive: 11.4 µM | inactive
CCc1nn(C)c(C(=O)NCc2ccc(C(C)(C)C)cc2)c1Cl | active: 46.1 µM | –
O=[N+]([O-])c1ccc(Cl)c([N+](=O)[O-])c1 | active: 44 µM and active: 44.4 µM | –
CC(=O)[O][Hg][c]1ccccc1 | active: 1.5 µM and active: 1.56 µM and active: 2.25 µM | –
Cc1cc(-c2ccc(N)c(C)c2)ccc1N | inconclusive: 46.1 µM and inconclusive: 46.5 µM and inconclusive: 46 µM | –
CCCCCCCCOC(=O)c1ccccc1C(=O)OCCCCCCCC | inconclusive: 23 µM | –
COC(=O)NC(=S)Nc1ccccc1NC(=S)NC(=O)OC | inconclusive: 1.45 µM | –
CCC(C)(C)c1ccc(O)cc1 | inconclusive: 23 µM | –
C=C(C)C(=O)[O][Sn]([CH2]CCC)([CH2]CCC)[CH2]CCC | active: 1.74 µM | –
C[C@H]1CCCC(=O)CCC/C=C/c2cc(O)cc(O)c2C(=O)O1 | inconclusive: 40.6 µM | –
CC(C)(c1ccccc1)c1ccc(O)c(C(C)(C)c2ccccc2)c1 | active: 39.1 µM and active: 24.3 µM | –
CCN1CCC2(CC1)COc1cc3c(cc12)N(C(=O)c1ccc(-c2ccc(-c4nnc(C)o4)cc2C)cc1)CC3 | active: 64.2 µM | –
NS(=O)(=O)C(F)(F)C(F)(F)C(F)(F)C(F)(F)C(F)(F)C(F)(F)C(F)(F)C(F)(F)F | active: 46.1 µM | –

A draw from above in order of length of the SMILES, smallest number first:
Compound | AC50 | outcome
COC(=O)NC(=S)Nc1ccccc1NC(=S)NC(=O)OC | inconclusive: 1.45 µM | –
C[C@H]1CCCC(=O)CCC/C=C/c2cc(O)cc(O)c2C(=O)O1 | inconclusive: 40.6 µM | –
NS(=O)(=O)C(F)(F)C(F)(F)C(F)(F)C(F)(F)C(F)(F)C(F)(F)C(F)(F)C(F)(F)F | active: 46.1 µM | –
